{"source": "patent EP1790337A2", "about": "“Methods and compounds for treating depression and other disorders” (priority 1998, dated 2000)", "key": {"NMDA receptor [1]": {"test_system": "NMDA receptor", "assay": "[3H]MK-801 binding assay, synaptic plasma membranes from rat cortex", "conditions": "Table II, at 10 µM", "protocol": "Synaptic plasma membranes (SPMs) from rat cortex were prepared as follows. […] The cortices from 25 rats were thawed and pooled. […] The extensive washing procedure utilized in this assay was designed to minimize the concentrations of glutamate and glycine (co-agonists at the NMDA receptor-ionophore complex) present in the membrane preparation.\nOn the day of assay, aliquots of SPM were thawed and resuspended in 75 vols of 5 mM K-EDTA, pH 7.0.\nThe SPM pellet was resuspended in assay buffer (30 mM EPPS, 1 mM K-EDTA, pH 7.0) by polytron. […] Binding was started by the addition of the tissue homogenate. The assay was terminated by the addition of 4 ml ice-cold buffer, followed by filtration over glass-fiber filters (Schleicher & Schuell No. 30) on a Millipore 12-well filtration manifold. […] Radioactivity on the filters was measured using Fisherbrand Scinti-Safe scintillation cocktail. Samples were shaken for 45-60 min on a shaker platform to solubilize the radioactivity. Counting for ^3H was performed in a Beckman 6000IC LS Scintillation Counter for 4 min per sample."}, "NMDA receptor [2]": {"test_system": "NMDA receptor", "assay": "NMDA assay: fura-2 measurement of cytosolic calcium in cultured rat cerebellar granule cells", "assay_type": "cell-based", "conditions": "read-out: fura2 data IC50, fura-2 [Ca2+]i", "protocol": "All culture media, antibiotics, and enzymes, with the exception of fetal calf serum (Hyclone Laboratories, Logan, UT), were purchased from Sigma Chemical Co., St. Louis, MO. Fura-2/AM was obtained from Molecular Probes, Eugene, OR, and was prepared freshly in dimethylsulfoxide (DMSO) before use. Ionomycin (Calbiochem) was stored as a stock solution in DMSO. Nifedipine (Sigma) and nimodipine (RBI) were dissolved in absolute ethanol. […] All other agents were dissolved in phosphate-buffered saline (PBS), and adjusted to pH 7.4\nBriefly, primary cultures of cerebellar granule neurons were obtained from 8-day-old rats and plated onto squares of Aclar plastic coated with poly-L-lyaine. The plastic squares were placed in 12-well culture plates, and ~7.5 x 10^5 cells were added to each well. […] No changes of culture medium were made until the cells were used for fluorescence recording 6-8 days after plating.\nThe cells were then rinsed with the same buffer, lacking fura-2/AM, and maintained at room temperature until used for measurement of fluorescence, the Aclar squares were transferred into quartz cuvettes containing 2 ml of the HEPES buffer. […] Fluorescence was measured using excitation and emission wavelengths of 340 and 510 nm, respectively."}}, "data": [{"compound": "CNCCC(Oc1ccc(C(F)(F)F)cc1)c1ccccc1", "note": "(centres unmarked) [Fluoxetine]", "values": [{"measurement": "[^1H]MK-801 data", "setting": "NMDA receptor [1]", "value": "No activity at 10 µM"}, {"measurement": "IC50", "setting": "NMDA receptor [2]", "value": 3.4, "unit": "µM"}]}]}
